These are yes or no findings as the source states them, for the method shown. In cells and extracts the contact can be indirect. Here binding means that the protein was enriched with, or labelled near, the bait; the list need not be complete.
Target: anaCyp40 with C-terminal Strep-tag (Anabaena sp. PCC 7120)
Test: affinity purification with mass spectrometry; Strep-tagged anaCyp40 from whole cell lysate of AFS-anacyp40-strep (1% β-DM, 100 mM Tris pH 8.0, 50 mM NaCl) on MagStrep type3 XT beads, 60 min at 4 °C; washes up to 100 mM NaCl and 0.5% Nonidet P-40; eluted with 50 mM D-biotin; wild-type Anabaena sp. as control; lysate not treated with RNAse or DNAse; LC-MS, p < 0.05

| Binder | binding |
| --- | --- |
| AtpD (protein, UniProt P06540 1-482) MVTTAEKTNIGYITQIIGPVVDVKFPNGKLPQIYNALTIKGTNEAGQQLNLTVEVQQLLGDNQIRAVAMSSTDGLVRGLEVVDTGAPISVPVGKATLGRIFNVLGEPVDNRGPVNNQETLPIHRPAPKLTELETKPSVFETGIKVVDLLTPYRRGGKIGLFGGAGVGKTVIMMELINNIATQHGGVSVFAGVGERTREGNDLYNEMIESGVINNENLNESKIALVYGQMNEPPGARMRVGLSGLTMAEYFRDVNKQDVLLFIDNIFRFVQAGSEVSALLGRMPSAVGYQPTLGTDVGQLQERITSTTEGSITSIQAVYVPADDLTDPAPATTFAHLDGTTVLSRGLASKGIYPAVDPLGSTSTMLQPNIVGDEHYNTARAVQSTLQRYKELQDIIAILGLDELSEEDRLIVARARKVERFLSQPFFVAEVFTGSPGKYVKLEDTIKGFQKILSGELDDLPEQAFYLVGDINEAIAKAEKIKG | binds |
| L4 (protein, UniProt Q8YPI0 1-210) MVESVVKNWQGEQIGQKTFELRVAKETTAAHIVHRALVRQQTNARQGTASTKTRAEVRGGGRKPWRQKGTGRARAGSIRSPLWRGGGVIFGPKPRDFDLKMNRKERRLALRTAFVSRIDDLILVEEFSNELSRPKTKDLVAAFTRWGAEPESKILLILSEFPENVYLSARNIENLKLIAADQLNVYDLLHADKIVVTTSALEKIQEVYNG | binds |
| S2 (protein, UniProt Q8YMY2 1-265) MPVVSLAQMMESGVHFGHQTRRWNPKMSPYIYTSRNGVHIIDLVQTAHLMDEAYNYMRSQAEQGKKFLFVGTKRQAAGIIAQEAARCGSHYINQRWLGGMLTNWATIKTRVDRLKDLERREESGALDLLPKKEASMLRRELAKLQKYLGGIKTMRKVPDVVVIVDQRREYNAVQECQKLSIPIVSMLDTNCDPDVVDIPIPANDDAIRSIKLIVGKLADAIYEGRHGQLDVEEEYEDYEGSEEDYDYDETEYADSVIPEDGEEAE | binds |
| L19 (protein, UniProt Q8YLK1 1-120) MSAQEIIRSIEAEQLKSNLPEIYIGDTVRVGVKIKEGEKYRVQPYEGVVIARRNGGINETITVRRVFQGVGVERVFLLHSPRIDNIKVLRRGKVRRAKLYYLRGRVGKATRIKQRFDRSL | binds |
